In PubChem BioAssay AID1259415 (National Center for Advancing Translational Sciences (NCATS), 2018):
Values joined by “and” are separate entries in the source; they are usually repeats but may differ in a detail not shown here. Equal entries are not always repeated. The whole screen tested about 410,000 compounds, of which about 18,000 (4.4%) were called active. This list was built around the results that the source calls inconclusive (neither active nor inactive); the mix of calls is not that of the screen. Cut-off read from the data, not from the text of the source: active = activity change below about -60%; inconclusive = no clear call, values can overlap the other calls; inactive = above about -39%.
% is set by controls: 0 for no effect and ±100 for the full control effect.

Experiment: qHTS Assay for inhibitors of the human cytomegalovirus (HCMV)
Conditions: HFF cells, HCMV-luciferase reporter, 72 h; at 57.5 µM; stronger effect = lower value
Summary of the method: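 Compounds were evaluated in HFFs infected with an HCMV luciferase reporter virus (MOI 1 PFU/cell). Luciferase in lysates collected 72 h post infection served as the replication measure.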
For `Cc1c(C(=O)OCCOc2ccccc2)[nH]c2c1C(=O)CC(c1ccccc1Cl)C2` (centres undefined), the activity change, negative = inhibition was active: -85.6%.
With `O=S(=O)(Cc1ccc(Cl)cc1)Nc1ccc(Cl)cn1` the activity change, negative = inhibition was active: -101%.
With `CCC1=NN(C(=O)c2ccc(Br)cc2)C(O)(c2ccccc2)C1` (centres undefined) the activity change, negative = inhibition was inconclusive: -52.6%.
In the case of `COc1cc(NC(=O)c2nccnc2N)cc(C(=O)Nc2cccc(C(F)(F)F)c2)c1`, the activity change, negative = inhibition is reported as inactive: -33.8% and inactive: -7.35%.
For `CCS(=O)(=O)N1CCN=C1SCc1cccnc1`, the activity change, negative = inhibition was inactive: -24.4%.
With `Cc1cccc(C)c1NC(=O)CNC(=O)CN1C(=O)NC2(CCc3ccccc32)C1=O` (centres undefined) the activity change, negative = inhibition was inconclusive: -51.6%.
For `c1ccc(Cn2nnc3c(NCc4ccc5c(c4)OCO5)nc(C4CC4)nc32)cc1`, the activity change, negative = inhibition was inactive: -13.7%.
With `Cc1onc(-c2ccccc2)c1C(=O)NCc1ccc(Cl)cc1` the activity change, negative = inhibition was inconclusive: -44.4%.
With `Cc1ccc(C(=O)N2CCN(c3ncccn3)CC2)c(C)c1` the activity change, negative = inhibition was inactive: -15.9%.
With `C=C(C)CSC1=C(C#N)C(c2ccccc2)CC(=O)N1` (centres undefined) the activity change, negative = inhibition was inconclusive: -50.2%.
In the case of `CN1CCN(C2Cc3ccccc3Sc3cc(C(F)(F)F)ccc32)CC1` (centres undefined), the activity change, negative = inhibition is reported as active: -109%.
In the case of `O=C(/C=C/c1ccccc1Cl)N(Cc1ccc(Cl)cc1)C1CCS(=O)(=O)C1` (centres undefined), the activity change, negative = inhibition is reported as inactive: -28.2%.
In the case of `Cc1cccc(NCC(=O)N/N=C/c2cccc(Br)c2)c1`, the activity change, negative = inhibition is reported as inconclusive: -43.1%.
For `O=C(COC(=O)c1cccc2c1C(=O)c1ccccc1C2=O)NC1CCCCC1`, the activity change, negative = inhibition was inconclusive: -50.2%.
For `S=c1[nH]nc(-c2ccccc2)n1C1C=CCCC1` (centres undefined), the activity change, negative = inhibition was inactive: -16.4%.
With `CCOC(=O)C1=C(C)C(c2cccc(Oc3ccccc3)c2)NC(=S)N1` (centres undefined) the activity change, negative = inhibition was inconclusive: -43.6%.
For `COC(=O)CSC1=NN1c1cc(C)nc(N)n1`, the activity change, negative = inhibition was inactive: 26.2%.
In the case of `OC(c1ccc(F)cc1)c1nc(-c2cccs2)cs1` (centres undefined), the activity change, negative = inhibition is reported as inactive: -18.3%.
With `CCCCN1CN(Cc2ccccc2)CNC1=S` the activity change, negative = inhibition was inconclusive: -44.5%.
In the case of `CC(=O)N1CCc2cc(S(=O)(=O)N3CCN(c4ccc(C)cc4)C(C)C3)ccc21` (centres undefined), the activity change, negative = inhibition is reported as inconclusive: -55.1%.
In the case of `O=S(=O)(NCCc1ccccn1)c1ccc(-c2ccccn2)s1`, the activity change, negative = inhibition is reported as inconclusive: -57.7%.
For `O=C(O)c1ccc(N/N=C/c2ccc(-c3ccc(Cl)cc3Cl)o2)cc1`, the activity change, negative = inhibition was inactive: -8.23%.
With `Cc1ccc(OCc2cc(=O)n3cc(C)sc3n2)c(C)c1` the activity change, negative = inhibition was active: -101%.
With `CCCCN(C)C(=O)c1nc2ccccn2c1CN1CCC[C@H]1CO` the activity change, negative = inhibition was inactive: 29.9%.
For `O=C(NCCc1ccccc1)C1CCN(Cc2ccccc2F)CC1`, the activity change, negative = inhibition was inconclusive: -41%.
For `CCOC(=O)C1CCCN(S(=O)(=O)c2ccc(S(=O)(=O)N(CC)CC)cc2)C1` (centres undefined), the activity change, negative = inhibition was active: -69.8%.
With `Nc1n[nH]c(-c2ccc(Br)cc2)c1Cl` the activity change, negative = inhibition was active: -109%.
With `CC1CCCC(NC(=O)c2ccc3snnc3c2)C1C` (centres undefined) the activity change, negative = inhibition was inactive: 1.26%.
For `CC(C)CNC(=S)N(CCCN(C)C)Cc1cc2cc3c(cc2[nH]c1=O)OCCO3`, the activity change, negative = inhibition was inactive: 6.29%.
In the case of `CCN(CCCCCCN)c1ccc2c(=O)[nH][nH]c(=O)c2c1`, the activity change, negative = inhibition is reported as inconclusive: -57.9%.
For `CC(C)N(C)S(=O)(=O)c1ccc(Cl)c(C(=O)O)c1`, the activity change, negative = inhibition was inconclusive: -42.8%.
For `CCC1C(=O)n2nc(-c3ccccc3)cc2N=C1C` (centres undefined), the activity change, negative = inhibition was inactive: 28.7%.
For `CCC1(c2ccc(F)cc2)NC(=O)N(CC(=O)N2CC(=O)Nc3ccccc32)C1=O` (centres undefined), the activity change, negative = inhibition was inconclusive: -42.9%.
In the case of `O=C(Nc1cccc2cccnc12)c1cccnc1`, the activity change, negative = inhibition is reported as inactive: 72.1%.
For `COc1ccccc1-c1ccc(OCCCN2CCC(C(O)(c3ccccc3)c3ccccc3)CC2)cc1`, the activity change, negative = inhibition was active: -98.8%.
With `Nc1cc(S(=O)(=O)Nc2cc(Cl)ccc2Cl)ccc1N1CCCC1` the activity change, negative = inhibition was inconclusive: -50%.
For `Cc1nccc(-c2ccc(-n3cnc4ccccc43)cc2)n1`, the activity change, negative = inhibition was inconclusive: -51.6%.
With `COc1ccc(/C=C2/CCC(CN3CCOCC3)C2=O)cc1` (centres undefined) the activity change, negative = inhibition was active: -98.2%.
In the case of `Cc1ccccc1-c1nnc(SC(C)C(=O)NC2CCCC2)o1` (centres undefined), the activity change, negative = inhibition is reported as inconclusive: -43.6%.
For `COc1cccc(Cn2cnc3c2c(=O)n(C)c(=O)n3C)c1`, the activity change, negative = inhibition was inconclusive: -41%.
With `COc1cccc(-c2cc3nc(NCc4ccc(C)cc4C)n(C)c(=O)c3s2)c1` the activity change, negative = inhibition was inconclusive: -59.8%.
With `C=CCn1c(SCC(=O)Nc2c(C)n(C)n(-c3ccccc3)c2=O)nnc1-c1cccnc1` the activity change, negative = inhibition was inactive: 33.8%.
For `COc1ccc(N2C3=C(CC4=C2CC(C)(C)CC4=O)C(=O)CC(C)(C)C3)cc1`, the activity change, negative = inhibition was active: -98.8%.
In the case of `CCN(CC)C(=O)c1sc(NC(=O)c2cccs2)c(C#N)c1C`, the activity change, negative = inhibition is reported as inconclusive: -44%.
For `CC(c1ccccc1)N(CCC(c1ccccc1)C1CCOC(C)(C)C1)C(=O)c1ccco1` (centres undefined), the activity change, negative = inhibition was active: -101%.
In the case of `Cc1c(Cl)cccc1NC(=S)NCc1ccccc1`, the activity change, negative = inhibition is reported as active: -78.2%.
For `O=C(OCCOc1ccc(Cl)cc1)c1cc(S(=O)(=O)N2CCCCC2)ccc1N1CCOCC1`, the activity change, negative = inhibition was inconclusive: -44.4%.
With `COc1ccc(C2SCCN2S(=O)(=O)c2ccccc2)cc1OC` (centres undefined) the activity change, negative = inhibition was inconclusive: -42.6%.
In the case of `Cc1cccc(C(=O)NC(=O)Nc2ccc(-n3nc(C(F)(F)F)cc3C(F)(F)F)cc2)c1`, the activity change, negative = inhibition is reported as inactive: -2.58%.
For `CCOC(=O)c1ccccc1NC(=O)Cn1c(=O)n(Cc2ccc(C(=O)NCc3ccc4c(c3)OCO4)cc2)c(=O)c2ccccc21`, the activity change, negative = inhibition was inconclusive: -51.7%.
For `COc1ccc(C(=O)Nc2cccc(-c3nc4cccnc4s3)c2C)c(OC)c1`, the activity change, negative = inhibition was inactive: -6.8%.
In the case of `COC(=O)[C@@H]1[C@@H](C)OC(=O)N[C@H]1c1ccccc1`, the activity change, negative = inhibition is reported as inconclusive: -41.4%.
With `CC[n+]1c(/C=C2/C=C(C)CC(C)(C)C2)sc2ccc(OC)cc21` the activity change, negative = inhibition was active: -86.5%.
In the case of `Cc1ccccc1-c1nn(-c2ccc(F)cc2F)cc1CNCCN(C)C`, the activity change, negative = inhibition is reported as inactive: -33.5%.
In the case of `NC(=O)c1c(NC(=O)c2ccccc2)sc2c1CCN(Cc1ccccc1)C2`, the activity change, negative = inhibition is reported as inconclusive: -45%.
For `CCOc1ccc(NC(=S)N2CCC(NC(=O)c3ccccc3C)CC2)cc1`, the activity change, negative = inhibition was inconclusive: -42.5%.
For `CCCC(C)NC(=O)c1ccc2[nH]c3c(c2c1)CC(C)CC3` (centres undefined), the activity change, negative = inhibition was inactive: 6.2%.
For `CCOC(=O)Cn1c(-c2nonc2NC(=O)c2ccccc2F)nc2ccccc21`, the activity change, negative = inhibition was active: -98%.
With `COc1ccc(N(CC(=O)NC2CCCCC2)C(=O)CCC(=O)Nc2nc(C)cs2)cc1` the activity change, negative = inhibition was inactive: 6.45%.
In the case of `CCC(=O)NC(C)C(c1cccs1)N1CCN(c2ccccc2)CC1` (centres undefined), the activity change, negative = inhibition is reported as inconclusive: -48.9%.
For `CCOC(=O)c1c(-c2cccc([N+](=O)[O-])c2)csc1N`, the activity change, negative = inhibition was inconclusive: -57.1%.
In the case of `Cc1cc(C)n(/N=C/c2ccco2)c(=O)c1C#N`, the activity change, negative = inhibition is reported as inconclusive: -47.9%.
With `O=S(=O)(c1cccs1)N1CN(Cc2ccc(Cl)cc2)c2nc3ccccc3nc21` the activity change, negative = inhibition was inconclusive: -56.1%.
For `COc1ccc(CN2CCC(n3nccc3NC(=O)CCOc3ccccc3)CC2)cc1C`, the activity change, negative = inhibition was inconclusive: -42.3%.
With `COc1cccc(Cn2cccc(NC(=O)Nc3cccc(C#N)c3)c2=O)c1` the activity change, negative = inhibition was active: -61.9%.
For `CC(C)(C)n1nnnc1C(c1ccccc1)N1CCN(c2ncc(C(F)(F)F)cc2Cl)CC1` (centres undefined), the activity change, negative = inhibition was active: -77.5%.
For `O=C(/C=C/c1cn(CC(O)CN2CCc3ccccc32)c2ccccc12)c1ccc(Br)cc1` (centres undefined), the activity change, negative = inhibition was inconclusive: -46.6%.
In the case of `CCC(=O)N1c2ccc(S(=O)(=O)NCCc3ccccc3)cc2CC1C` (centres undefined), the activity change, negative = inhibition is reported as inconclusive: -40.5%.
In the case of `COc1ccc(N2CC(NC(=O)NCCC(C)C)CC2=O)cc1` (centres undefined), the activity change, negative = inhibition is reported as inconclusive: -45.2%.
In the case of `CC(Oc1ccc(Cl)cc1Cl)c1ccn[nH]1` (centres undefined), the activity change, negative = inhibition is reported as inactive: -24.9%.
With `CCOC(=O)c1c(NC(=O)CSc2nc3cc(Cl)ccc3s2)sc(C(C)=O)c1C` the activity change, negative = inhibition was active: -61.2%.
In the case of `COc1ccc(S(=O)(=O)N(CC(=O)NC(C)C)Cc2ccccc2)cc1`, the activity change, negative = inhibition is reported as inconclusive: -42.8%.
With `COc1cccc(/C=C/C(=O)NNC(=O)c2ccccc2)c1OC` the activity change, negative = inhibition was inactive: 107%.
With `COc1cc(/C=C2\SC(=O)N(CCN)C2=O)ccc1OS(=O)(=O)c1cc(C)ccc1C` the activity change, negative = inhibition was inconclusive: -53.5%.
For `COc1cc2c(cc1OC)C(c1c(O)n(CCc3ccccc3)c(=S)[nH]c1=O)NCC2` (centres undefined), the activity change, negative = inhibition was active: -64.4%.
In the case of `COCCNc1nc(SCC(=O)N2CCN(c3ccccc3OC)CC2)nc2ccccc12`, the activity change, negative = inhibition is reported as inactive: -16.1%.
In the case of `CCOC(=O)Cn1c2c(c(=N)c3c1CCC3)CCCC2`, the activity change, negative = inhibition is reported as inconclusive: -59.3%.
With `Cc1c(CC(=O)N[C@@H](C)C(=O)O)c(=O)oc2cc3oc4c(c3cc12)CCCC4` the activity change, negative = inhibition was inconclusive: -42.7%.
With `O=C(COC(=O)CCSc1ccc(F)cc1)NCc1ccc(F)cc1` the activity change, negative = inhibition was inconclusive: -40.6%.
For `Cc1nc2ccc(NC(=O)c3ccc4ccccc4n3)cc2s1`, the activity change, negative = inhibition was inactive: 30.6%.
With `CCC(C)(C)NC(=O)CN(CC1CCCO1)C(=O)CNS(=O)(=O)c1ccccc1` (centres undefined) the activity change, negative = inhibition was inactive: 0.572%.
In the case of `O=C(O)c1ccccc1Sc1ncnc2sc3c(c12)CCC3`, the activity change, negative = inhibition is reported as inconclusive: -47.4%.
With `Cc1cccc2cc(CN(Cc3ccccc3)C(=S)NCCCN(C)C)c(=O)[nH]c12` the activity change, negative = inhibition was inconclusive: -40.5%.
With `COc1cc(C(=O)N(C)Cc2cccc(OC)c2OC)ccc1OCC(=O)Nc1cccc(C(F)(F)F)c1` the activity change, negative = inhibition was active: -86.1%.
With `CCOc1ccc(C(=O)NC(=S)NCc2cccnc2)cc1` the activity change, negative = inhibition was inactive: -15.8%.
With `Cc1cc(C)c2oc(C(=O)Nc3ccc(S(=O)(=O)Nc4nccs4)cc3)cc(=O)c2c1` the activity change, negative = inhibition was inactive: -37.4%.
In the case of `Nc1cc(=O)[nH]c(SCCSc2ccccc2F)n1`, the activity change, negative = inhibition is reported as inconclusive: -45.9%.
For `Cc1ccccc1OCC(=O)Nc1ccc(Cc2ccncc2)cc1`, the activity change, negative = inhibition was inconclusive: -55.2%.
With `O=C(CSc1nc2ccccc2o1)NCC1CCCO1` (centres undefined) the activity change, negative = inhibition was inactive: -10.3%.
